Measured values as given in the supplement of paper PMC7877785.
± gives the uncertainty stated by the source. The uncertainty is large for many entries.

Test: self-splicing fitness, log relative to wild type (ln ratio); higher = more splicing; Tetrahymena group I intron in knt gene, E. coli kanamycin selection, DiMSum; sequences stand for … in CUCUCU…GGAGGGAAAAGUUAUCAGGCAUGCACCUGGUAGCUAGUCUUUAAACCAAUAGAUUGCAUCGGUUUAAAAGGCAAGACCGUCAAAUUGCGGGAAAGGGGUCAACAGCCGUUCAGUACCAAGUCUCAGGGGAAACUUUGAGAUGGCCUUGCAAAGGGUAUGGUAAUAAGCUGACGGACAUGGUCCUAACCACGCAGCCAAGUCCUAAGUCAACAGAUCUUCUGUUGAUAUGGAUGCAGUUCACAGACUAAAUGUCGGUCGGGGAAGAUGUAUUCUUCUCAUAAGAUAUAGUCGGACCUCUCCUUAAUGGGAGCUAGCGGAUGAAGUGAUGCAACACUGGAGCCGCUGGGAACUAAUUUGUAUGCGAAAGUAUAUUGAUUAGUUUUGGAGUACUCGUGGUCG
Outline: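 The eight P1ex-region nucleotides of an intron in the knt kanamycin-resistance gene on pET-22b(+) were all randomised and the library put into E. coli BL21(DE3). Six replicate transformations were grown overnight at 37°C or 30°C on LB agar with or without 25 μg/mL kanamycin, together with 100 μg/mL carbenicillin, 50 μM IPTG and 0.2% rhamnose. Colonies were pooled and amplicon-sequenced on an Illumina HiSeq 2500. Fitness from DiMSum is the error-weighted combination of wild-type-normalised replicate fold changes, kanamycin over none.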

Sequence | self-splicing fitness (ln) (30 °C) | self-splicing fitness (ln) (37 °C)
CUGCAGCAAUAUUACGCGGC | -4.84 ± 0.51 | -2.63 ± 0.34
GAGGAGCAAUAUUACGACCC | -2.79 ± 1.2 | -1.58 ± 0.87
GGGUAGCAAUAUUACGCAAC | -2.29 ± 0.57 | 
CACAAGCAAUAUUACGCAUG | -3.79 ± 0.18 | -2.52 ± 0.13
AUAUAGCAAUAUUACGUCCU | -0.548 ± 0.11 | 0.119 ± 0.12
UAGUAGCAAUAUUACGUAGC | -3.52 ± 0.22 | -1.37 ± 0.2
GGAGAGCAAUAUUACGGCCC | -2.61 ± 0.85 | -1.38 ± 0.87
GCUAAGCAAUAUUACGGACC | -3.7 ± 1.1 | 0.498 ± 0.51
CUGUAGCAAUAUUACGCGUC | -2.62 ± 0.56 | 
CAGGAGCAAUAUUACGCUCC |  | -1.29 ± 1.2
CAUGAGCAAUAUUACGGGAA | -3.83 ± 0.62 | 
CUCGAGCAAUAUUACGCGUC | -3.93 ± 0.59 | 
UCCGAGCAAUAUUACGCCAC |  | -2.49 ± 0.63
AACCAGCAAUAUUACGGCCG | 0.0592 ± 0.073 | -0.223 ± 0.1
UACUAGCAAUAUUACGCAAG | -2.98 ± 0.33 | -1.72 ± 0.24
UCUCAGCAAUAUUACGCUCA | -3.47 ± 0.63 | 
UCGUAGCAAUAUUACGUCGC | -2.58 ± 0.8 | 
CUGUAGCAAUAUUACGCCUC |  | -1.95 ± 0.81
CUCAAGCAAUAUUACGCCAU | -4.98 ± 1 | 
GUAUAGCAAUAUUACGCCAA |  | -1.62 ± 1.1
CUGUAGCAAUAUUACGAAUC |  | -3.04 ± 0.74
GUCGAGCAAUAUUACGUCGC | -1.55 ± 0.83 | -1.05 ± 0.53
GUGAAGCAAUAUUACGCGAU | -0.828 ± 1 | 
AUAAAGCAAUAUUACGCCAC |  | -1.75 ± 0.52
CCUAAGCAAUAUUACGGCCC |  | -2.99 ± 1

Sequence | self-splicing fitness (ln) (30 °C) | self-splicing fitness (ln) (37 °C)
UCUAAGCAAUAUUACGCAAU | -3.57 ± 1 | 
UGCGAGCAAUAUUACGGCUG | -1.04 ± 0.1 | -0.349 ± 0.15
GGAUAGCAAUAUUACGGCAG | -3.63 ± 0.74 | -2.18 ± 0.22
UCGUAGCAAUAUUACGGACC |  | -3.38 ± 1
GCAGAGCAAUAUUACGGCCC |  | -1.65 ± 0.69
GGGCAGCAAUAUUACGUCCU | -5.74 ± 1 | -3.02 ± 0.32
UUUUAGCAAUAUUACGAUCC |  | -0.735 ± 1
CCGGAGCAAUAUUACGAUAA | -2.5 ± 0.63 | -2.09 ± 0.56
UCGGAGCAAUAUUACGUACU | -4.81 ± 0.72 | 
GCGGAGCAAUAUUACGACCG | -1.73 ± 0.91 | -1.85 ± 0.81
UCCGAGCAAUAUUACGAACC |  | -0.927 ± 1.2
UUGAAGCAAUAUUACGUAUC | -5.62 ± 1 | 
CCUUAGCAAUAUUACGGCCC | -2.77 ± 1.1 | -1.37 ± 1.2
UCGGAGCAAUAUUACGCAUU | -3.93 ± 0.52 | 
CUCCAGCAAUAUUACGACCA | -3.36 ± 0.55 | 
UGCAAGCAAUAUUACGCUCA | -0.11 ± 0.16 | 0.138 ± 0.2
GGGAAGCAAUAUUACGCUUC |  | -2.09 ± 0.67
CUUCAGCAAUAUUACGUCAC | -4.73 ± 0.72 | 
UCAGAGCAAUAUUACGUCAU |  | -2.26 ± 0.55
CUAAAGCAAUAUUACGGCAC |  | -2.32 ± 0.55
GCCGAGCAAUAUUACGUCAC | -3.52 ± 1.1 | 
CUGCAGCAAUAUUACGCCGU | -4.42 ± 0.73 | 
CCGUAGCAAUAUUACGCGAC | -1.91 ± 0.53 | -0.595 ± 1.4
CGAGAGCAAUAUUACGAGUA | -1.81 ± 0.73 | -1.93 ± 0.57

Pulled one by one from the list above (2):
Sequence | self-splicing fitness (ln) (30 °C) | self-splicing fitness (ln) (37 °C)
GGGAAGCAAUAUUACGCUUC |  | -2.09 ± 0.67
GCCGAGCAAUAUUACGUCAC | -3.52 ± 1.1 | 
